Experimental data from article PMC2978108.

How the values were obtained:
[1] = target: T1, GST-GRD (GRD domain of GAPA, residues 202-557, GST fusion) (D. discoideum) (UniProt O00899); test: pull-down; GST-GRD bound beads incubated 3 hrs at 4°C with lysates of cells expressing Rac proteins as GFP fusions; 25 mM Tris/HCl pH 7.5, 150 mM NaCl, 5 mM EDTA, 0.5% Triton X-100, 1 mM NaF, 0.5 mM Na3VO4, 1 mM DTT; blot with GFP mAb; only the target purified
T1 sequence: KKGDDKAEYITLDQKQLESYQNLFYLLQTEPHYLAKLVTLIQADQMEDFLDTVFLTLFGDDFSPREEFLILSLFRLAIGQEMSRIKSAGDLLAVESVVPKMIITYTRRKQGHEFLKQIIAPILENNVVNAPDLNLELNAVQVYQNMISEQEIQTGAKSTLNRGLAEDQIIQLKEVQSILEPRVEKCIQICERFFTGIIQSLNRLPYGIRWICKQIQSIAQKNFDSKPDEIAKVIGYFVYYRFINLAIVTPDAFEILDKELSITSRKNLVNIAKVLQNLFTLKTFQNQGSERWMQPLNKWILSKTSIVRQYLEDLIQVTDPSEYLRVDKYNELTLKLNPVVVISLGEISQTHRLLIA

[2] = target: T1, GST-GRD (GRD domain of GAPA, residues 202-557, GST fusion) (D. discoideum); test: pull-down; glutathione sepharose beads coated with GST-GRD or GST-GAPA incubated with D. discoideum cell lysates at 4°C; eluates resolved by SDS-PAGE and immunoblotted; only the target purified
[3] = target: T1, GST-GRD (GRD domain of GAPA, residues 202-557, GST fusion) (D. discoideum); test: pull-down; GST-GRD on glutathione sepharose beads as bait with His-tagged cortexillin I polypeptides

| binding [1] | binding [2] | Substance | further results |
| --- | --- | --- | --- |
|  | no binding | GFP-rod1-6 (the six rod repeats of Filamin, GFP-tagged) (D. discoideum) (domain or fragment) |  |
| binds |  | GFP-RacI (D. discoideum RacI as GFP fusion) |  |

Further lines, the substance ahead of its results:

| Substance | binding [1] | binding [2] | further results |
| --- | --- | --- | --- |
| GFP-RacH (D. discoideum RacH as GFP fusion) | binds |  |  |
| His-tagged ABD domain of cortexillin I (D. discoideum) (domain or fragment) |  |  | binding [3]: binds |
| GFP-ABD (actin binding domain of Filamin, GFP-tagged) (D. discoideum) (domain or fragment) |  | binds |  |
| GFP-RacG (D. discoideum RacG as GFP fusion) | binds |  |  |

Results are given in words; binding and its absence hold for the method and conditions named. In cells and extracts the contact can be indirect. Binding calls can cover weak binding; strength is not graded here. Sequences can lack the tags named with a protein.
